# Reference: PMC9102726
# Chains of the proteins cited; added tags and fusions are not shown.
# UniProt P09429: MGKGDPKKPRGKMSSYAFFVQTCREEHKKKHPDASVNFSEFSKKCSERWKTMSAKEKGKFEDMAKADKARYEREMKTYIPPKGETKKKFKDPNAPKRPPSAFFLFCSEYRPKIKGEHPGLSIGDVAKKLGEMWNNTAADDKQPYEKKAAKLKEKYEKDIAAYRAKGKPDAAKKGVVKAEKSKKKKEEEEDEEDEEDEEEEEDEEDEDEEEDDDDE
# No constants are given. Whether binding was seen depends on the method and setting. In cells and extracts the contact can be indirect. These calls come from enrichment with a bait or labelling near it, and not all partners need be listed.
# Target: Valosin-containing protein (VCP), exogenous, in MHCC-LM3 cells (UniProt P55072)
# Assay: affinity purification with mass spectrometry; VCP immunoprecipitated from MHCC-LM3 cells treated with exogenous VCP; SDS-PAGE, Coomassie staining, bands cut and analysed by LC-ESI-LTQ-Orbitrap MS
substance,measurement,value
"High-mobility group box 1 (HMGB1), endogenous (from UniProt P09429 1-215)",binding,binds
